PubChem BioAssay AID1224828, NIAID, 2016
Test: 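Regulators linking TLR4 signalling to p65 nuclear translocation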 (primary screen). Cell system: mouse RAW264.7 G9 macrophage reporter cells (GFP-p65, Tnf promoter-mCherry). Knock-down reagent: siRNA pool against mouse genes, 100 nM. Time to read-out: 2 days siRNA transfection, then 40 min LPS before fixation. Treatment: LPS (Salmonella minnesota R595) at 10 ng/ml. Measured: 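Microscopy ratio of nuclear to perinuclear-ring GFP-p65 signal, scaled to the plate median; gene score is the average of two replicate robust z-scores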. Direction: p65 translocation robust z-score: higher = more nuclear NF-kappaB p65 after LPS than the plate median; nuclear/cytoplasmic p65 ratio: higher = more nuclear NF-kappaB p65. Active means: 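Active if robust z is above 3.3 (negative regulators) or below -1.56, the Tlr4 control median (positive regulators); activity score 50 or more; control wells not called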. Meaning of the calls: active = hit (p65 shift raised or lowered); inactive = no clear change.
Shown is one part, drawn at random, of about 17,000 reagents. 762 of all reagents (4.5%) count as active. 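Active calls include both raised and lowered p65 entry, mostly lowered; wells with fewer than 50 cells lack a z-score.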 Raw values vary from plate to plate and are shown uncorrected. A number with no mark means an inactive call. The numbers tell different reagents against one gene apart.

no.	gene	reagent	p65 translocation robust z-score	nuclear/cytoplasmic p65 ratio, rep 1	nuclear/cytoplasmic p65 ratio, rep 2	low cell count flag
1	Tns1 (GeneID 21961)	1	0.2	1.52	1.36	enough cells to score
2	N4bp2l2 (GeneID 381695)	1	2.16	1.91	2.2	enough cells to score
3	Emb (GeneID 13723)	1		1.12	1.4	fewer than 50 cells per well; well left out of scoring
4	Brip1 (GeneID 237911)	1	-0.13	1.67	1.52	enough cells to score
5	Ank1 (GeneID 11733)	1	1.87	1.97	1.83	enough cells to score
6	Toporsl (GeneID 68274)	1		1.67	1.35	fewer than 50 cells per well; well left out of scoring
7	Klf6 (GeneID 23849)	1	1.58	1.73	1.55	enough cells to score
8	Or56a3 (GeneID 259046)	1		1.48	1.26	fewer than 50 cells per well; well left out of scoring
9	Or4f4b (GeneID 258399)	1	-0.08	1.67	1.35	enough cells to score
10	4930451E10Rik (GeneID 78111)	1		1.02	1.09	fewer than 50 cells per well; well left out of scoring
11	Mien1 (GeneID 103742)	1	-1.43	1.18	1.37	enough cells to score
12	Msrb3 (GeneID 320183)	1	-0.11	1.49	1.6	enough cells to score
13	Cdc45 (GeneID 12544)	1	-1.14	1.42	1.23	enough cells to score
14	Ctdsp2 (GeneID 52468)	1	-0.74	1.57	1.54	enough cells to score
15	Stk10 (GeneID 20868)	1	-0.38	1.49	1.34	enough cells to score
16	Or5d46 (GeneID 258767)	1	2.59	2.01	2	enough cells to score
17	St8sia2 (GeneID 20450)	1	1.36	1.63	1.37	enough cells to score

In a second layout: results already given.
Klf6 (GeneID 23849) — p65 translocation robust z-score: 1.58; nuclear/cytoplasmic p65 ratio, rep 1: 1.73; nuclear/cytoplasmic p65 ratio, rep 2: 1.55; low cell count flag: enough cells to score
Or56a3 (GeneID 259046) — nuclear/cytoplasmic p65 ratio, rep 1: 1.48; nuclear/cytoplasmic p65 ratio, rep 2: 1.26; low cell count flag: fewer than 50 cells per well; well left out of scoring
Or4f4b (GeneID 258399) — p65 translocation robust z-score: -0.08; nuclear/cytoplasmic p65 ratio, rep 1: 1.67; nuclear/cytoplasmic p65 ratio, rep 2: 1.35; low cell count flag: enough cells to score
4930451E10Rik (GeneID 78111) — nuclear/cytoplasmic p65 ratio, rep 1: 1.02; nuclear/cytoplasmic p65 ratio, rep 2: 1.09; low cell count flag: fewer than 50 cells per well; well left out of scoring
Mien1 (GeneID 103742) — p65 translocation robust z-score: -1.43; nuclear/cytoplasmic p65 ratio, rep 1: 1.18; nuclear/cytoplasmic p65 ratio, rep 2: 1.37; low cell count flag: enough cells to score
Msrb3 (GeneID 320183) — p65 translocation robust z-score: -0.11; nuclear/cytoplasmic p65 ratio, rep 1: 1.49; nuclear/cytoplasmic p65 ratio, rep 2: 1.6; low cell count flag: enough cells to score
Cdc45 (GeneID 12544) — p65 translocation robust z-score: -1.14; nuclear/cytoplasmic p65 ratio, rep 1: 1.42; nuclear/cytoplasmic p65 ratio, rep 2: 1.23; low cell count flag: enough cells to score

Next results follow.
no.	gene	reagent	p65 translocation robust z-score	nuclear/cytoplasmic p65 ratio, rep 1	nuclear/cytoplasmic p65 ratio, rep 2	low cell count flag
18	Bag3 (GeneID 29810)	1	-0.78	1.51	1.49	enough cells to score
19	Dnmbp (GeneID 71972)	1	1.42	1.74	1.47	enough cells to score
20	Trmt10c (GeneID 52575)	1	0.5	1.49	1.29	enough cells to score
21	Olfm1 (GeneID 56177)	1		1.56	1.64	fewer than 50 cells per well; well left out of scoring
22	Fosl1 (GeneID 14283)	1	0.87	1.55	1.48	enough cells to score
23	Tmub1 (GeneID 64295)	1		1.88	0.975	fewer than 50 cells per well; well left out of scoring
24	Cd40 (GeneID 21939)	1	0.07	1.55	1.51	enough cells to score
25	Nudt16 (GeneID 75686)	1		1.38	1.41	fewer than 50 cells per well; well left out of scoring
26	Or10al6 (GeneID 258285)	1	-1.45	1.49	1.41	enough cells to score
27	Rps27l (GeneID 67941)	1	0.65	1.47	1.33	enough cells to score
28	Lrtm2 (GeneID 211187)	1	-0.94	1.38	1.62	enough cells to score
29	Ptp4a2 (GeneID 19244)	1	0.94	1.58	1.58	enough cells to score
30	Vmn1r47 (GeneID 113846)	1		1.48	1.35	fewer than 50 cells per well; well left out of scoring
31	Evpl (GeneID 14027)	1	-1.03	1.33	1.23	enough cells to score
32	Zpr1 (GeneID 22687)	1	1.44	1.6	1.41	enough cells to score
33	Elp3 (GeneID 74195)	1	2.17	1.64	1.74	enough cells to score
34	Lin54 (GeneID 231506)	1	0.18	1.58	1.77	enough cells to score
35	Arfgap3 (GeneID 66251)	1	0.45	1.67	1.7	enough cells to score
36	Ggnbp2 (GeneID 217039)	1	-0.12	1.2	1.23	enough cells to score
37	Pcnx2 (GeneID 270109)	1		1.16	1.28	fewer than 50 cells per well; well left out of scoring
38	Pcnx2 (GeneID 270109)	2	-2.01 (active)	1.18	1.39	enough cells to score
39	Cdkl2 (GeneID 53886)	1	0.31	1.77	1.4	enough cells to score
40	Dlx4 (GeneID 13394)	1		1.14	1.04	fewer than 50 cells per well; well left out of scoring
